Sequences of proteins named here, by UniProt entry; tags and fusion partners are left off.
UniProt O94762: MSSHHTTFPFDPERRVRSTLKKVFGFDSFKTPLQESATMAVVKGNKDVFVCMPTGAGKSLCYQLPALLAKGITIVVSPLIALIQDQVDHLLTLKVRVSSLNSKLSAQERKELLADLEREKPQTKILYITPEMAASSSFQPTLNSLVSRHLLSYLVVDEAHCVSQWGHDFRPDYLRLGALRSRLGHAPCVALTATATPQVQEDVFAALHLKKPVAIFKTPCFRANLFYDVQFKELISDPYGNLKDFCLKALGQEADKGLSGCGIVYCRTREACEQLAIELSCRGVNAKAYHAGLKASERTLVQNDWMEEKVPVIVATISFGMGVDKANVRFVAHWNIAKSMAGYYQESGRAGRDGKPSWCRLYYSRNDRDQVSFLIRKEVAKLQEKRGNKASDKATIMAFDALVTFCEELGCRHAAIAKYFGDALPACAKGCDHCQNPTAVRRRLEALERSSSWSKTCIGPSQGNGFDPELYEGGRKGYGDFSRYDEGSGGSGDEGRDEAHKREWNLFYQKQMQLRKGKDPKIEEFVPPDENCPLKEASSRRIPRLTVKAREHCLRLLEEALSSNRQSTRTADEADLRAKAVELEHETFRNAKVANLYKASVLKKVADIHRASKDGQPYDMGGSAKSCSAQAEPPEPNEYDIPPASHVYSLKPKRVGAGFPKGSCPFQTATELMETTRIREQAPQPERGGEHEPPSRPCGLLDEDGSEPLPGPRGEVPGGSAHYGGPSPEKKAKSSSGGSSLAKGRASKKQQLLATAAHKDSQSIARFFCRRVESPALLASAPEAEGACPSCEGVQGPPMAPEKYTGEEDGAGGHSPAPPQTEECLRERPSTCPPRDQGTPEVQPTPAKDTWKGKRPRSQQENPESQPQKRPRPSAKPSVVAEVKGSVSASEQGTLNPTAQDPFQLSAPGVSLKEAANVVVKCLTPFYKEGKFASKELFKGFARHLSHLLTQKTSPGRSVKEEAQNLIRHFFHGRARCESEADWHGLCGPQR
UniProt Q6ZW49: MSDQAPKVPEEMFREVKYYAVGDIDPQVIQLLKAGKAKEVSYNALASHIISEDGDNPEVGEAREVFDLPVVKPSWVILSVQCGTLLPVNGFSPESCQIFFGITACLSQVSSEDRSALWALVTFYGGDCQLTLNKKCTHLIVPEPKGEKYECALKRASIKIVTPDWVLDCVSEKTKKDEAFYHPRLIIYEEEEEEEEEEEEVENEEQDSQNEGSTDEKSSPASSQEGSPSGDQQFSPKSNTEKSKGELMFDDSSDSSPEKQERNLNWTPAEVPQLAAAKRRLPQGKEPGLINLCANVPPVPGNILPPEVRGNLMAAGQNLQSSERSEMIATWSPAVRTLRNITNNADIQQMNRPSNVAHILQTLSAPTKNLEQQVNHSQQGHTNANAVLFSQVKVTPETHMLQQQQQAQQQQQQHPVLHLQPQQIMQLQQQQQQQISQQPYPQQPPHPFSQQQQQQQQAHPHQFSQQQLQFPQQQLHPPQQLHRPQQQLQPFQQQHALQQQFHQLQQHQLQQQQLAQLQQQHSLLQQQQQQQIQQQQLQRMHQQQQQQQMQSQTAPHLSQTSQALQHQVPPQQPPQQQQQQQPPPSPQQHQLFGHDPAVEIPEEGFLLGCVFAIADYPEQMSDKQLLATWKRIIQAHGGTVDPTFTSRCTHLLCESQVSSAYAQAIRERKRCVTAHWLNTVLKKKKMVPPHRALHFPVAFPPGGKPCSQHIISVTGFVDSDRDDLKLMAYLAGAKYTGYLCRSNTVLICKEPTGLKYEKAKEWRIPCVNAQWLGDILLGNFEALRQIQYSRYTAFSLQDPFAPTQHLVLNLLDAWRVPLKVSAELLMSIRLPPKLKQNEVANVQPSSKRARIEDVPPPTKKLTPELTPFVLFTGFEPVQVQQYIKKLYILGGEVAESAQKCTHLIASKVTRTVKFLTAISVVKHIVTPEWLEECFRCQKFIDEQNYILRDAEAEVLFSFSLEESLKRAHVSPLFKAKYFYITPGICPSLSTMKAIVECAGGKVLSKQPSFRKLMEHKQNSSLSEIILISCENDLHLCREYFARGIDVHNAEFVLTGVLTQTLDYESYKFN

According to paper PMC4762426:

Molecular target: Flag-tagged RECQL5 (UniProt O94762)
Assay: affinity purification with mass spectrometry; Flag-RECQL5 purification, subsequent high-sensitivity mass spectroscopy analysis (Supplemental Fig. S1B, Table S2)

binding: binds
Substance: PTIP (from UniProt Q6ZW49 1-1069)

No constants are given. Whether binding was seen depends on the method and setting. Binding seen in cells or lysates may run through a third protein. Here binding means that the protein was enriched with, or labelled near, the bait; the list need not be complete.
